Measured values reported in PubChem BioAssay (NCATS).
“And” between values parts separate entries of the source, which are not always exact repeats. Equal entries are not always repeated. The list shows a part of the results. Shown are side measurements of this screen, not its main read-out; they come without a call. Compounds called inactive in the main read-out are mostly missing here. The note in brackets gives the kind of curve behind each potency; many fits are weak.

Experiments:
[1] = qHTS Assay for Inhibitors of PDE-IV (AID 607); settings: HEK293 ACTOne CNG channel cells, membrane potential fluorescence; measured here: parental cell counter-screen
How it was run: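 HEK293 ACTOne cells with CNG channel (1000/well), endogenous PDE4; membrane potential dye, compounds up to 22.9 uM final. Fluorescence Ex 535/Em 590; RO 20-1724 (100 uM final) as reference.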

[2] = Validation of Assay for Modulators of Lamin A Splicing (AID 1459); settings: Lamin A splicing dual RFP/GFP fluorescence reporter, ratio
How it was run: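 S3 HeLa stably expressing lamin A-EGFP splicing minigene and DsRed2, 600 cells/well in Opti-MEM with 2% FBS, treated 48 h at 37C; laser-scanning cytometry gives GFP/RFP total intensity ratio; ancitabine positive control, 0.5% DMSO vehicle.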

[3] = qHTS Assay for Lipid Storage Modulators (AID 1519); settings: Drosophila S3 cells, BODIPY lipid droplet/cell ratio, laser cytometry, cells loaded with oleic acid
How it was run: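 Cells seeded at 5,000 per well were treated with compounds over a concentration series and loaded with oleic acid (400 uM, as added). Lipid droplet fluorescence (488 nm excitation, 500-530 nm channel) was read by laser-scanning cytometry and normalized to 20 uM Triacsin C.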

[4] = qHTS Assay for Modulators of Human Peripheral Myelin Protein 22 (PMP22) Expression/Activity (AID 1967); settings: Cell-based PMP22 reporter, dual-color luciferase ratio
How it was run: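 Mouse MSC80 Schwann cells carrying Pmp22 promoter–green click beetle luciferase plus EF-alpha–red luciferase control, dosed 24 h at 37 °C. Dual-filter luminescence, overlap-corrected; %Activity from green/red ratio normalised to untreated cells, concentration-response curves fitted.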

[5] = qHTS Validation Assay to Find Inhibitors of Chronic Active B-Cell Receptor Signaling (AID 485345); settings: ABC-DLBCL cells, chronic BCR signaling reporter
How it was run: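 TMD8 ABC-DLBCL cells stably carrying doxycycline-inducible IkappaBalpha–green luciferase fusion plus unfused red luciferase; compounds 46 uM to 3 nM, 4 h at 37C with doxycycline. Corrected green/red luminescence ratio normalized to 10 uM MG-132 and basal cell wells; curves fitted.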

[6] = Nrf2 qHTS screen for inhibitors: Validation (AID 493153); settings: A549 ARE-Fluc reporter, 18-24 h; AC50: CellTiter-Fluor fluorescence read, measured here: cytotoxicity CellTiter-Fluor AC50; viability change: measured here: cytotoxicity max response
How it was run: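 Dose-response validation uses reporter A549 cells with firefly luciferase under an antioxidant response element. Compounds stay on cells 18-24 h at 37°C, and luminescence indicates Nrf2-driven transcription.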

[7] = qHTS for identification of novel therapeutic agents for treatment of microphthalmiaassociated transcription factor (MiT) renal cell carcinoma (RCC) (AID 1963991); settings: CellTiter-Glo, 48 h; for z-score: stronger effect = lower value
How it was run: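 Three TFE3-fusion RCC lines (UOK109, UOK124, UOK145), 500 cells/well in complete medium, were treated with MIPE 4.0 compounds for 48 hours at 37 C. Viability was by CellTiter-Glo luminescence, normalized to DMSO (100%) and empty wells (0%); curves fitted over 11 concentrations.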

[8] = A High-Content qHTS Against Drug Library for the Identification of Small Molecules that Inhibit DYT1 Early Onset Primary Dystonia-Associated Cell Pathology (AID 1645839); settings: HEK293 Flp-In EGFP-delE TorsinA, punctate imaging, 48 h; measured here: cell count cytotoxicity
How it was run: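 Flp-In T-REx 293 cells with tetracycline-inducible EGFP-delE hTOR1A (WT EGFP-hTOR1A as reference), 800 cells/well; compound added with tetracycline, 48 h at 37 C. Fixed, permeabilized cells imaged; %pathology (punctate TorsinA) primary, cell count counterscreen.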

[9] = measured here: cell count channel max response
[10] = measured here: cell number channel AC50
[11] = measured here: lipid (BODIPY) channel AC50
[12] = measured here: lipid channel max response
[13] = measured here: green reporter channel AC50, mouse Pmp22 promoter in mouse Schwann cells
[14] = measured here: red reporter channel AC50, EF-alpha promoter control reporter in MSC80 mouse Schwann cells
[15] = measured here: CBG/CBR ratio read-out
[16] = measured here: CBR control luciferase (viability counter)

CC(C)(C)c1cc(/C=C(\C#N)C(N)=S)cc(C(C)(C)C)c1O
AC50 [1]: 5.01 µM [rising, full curve] | AC50 ([2]; measured here: GFP channel): 2 µM [rising, partial curve, poor fit] | max response [3, 9]: -31.8% | AC50 [3, 10]: 4.47 µM [falling, full curve] | AC50 [3, 11]: 4.47 µM [falling, full curve] | max response [3, 12]: -65.8% | AC50 [4, 13]: 33.8 µM [falling, partial curve] | AC50 [4, 14]: 33.8 µM [falling, partial curve] | AC50 [5, 15]: 10.3 µM [falling, single point] | AC50 [5, 16]: 23.1 µM [falling, single point] | AC50 [6]: 9.2 µM [falling, partial curve, poor fit] | viability change [6]: -35.9%

N=C(N)c1ccc(OCCCCCOc2ccc(C(=N)N)cc2)cc1 (tested in a mixture with another compound)
AC50 ([2]; measured here: GFP channel): 2.51 µM [falling, partial curve] | max response [3, 9]: 54.8% | max response [3, 12]: 57.3% | AC50 [4, 13]: 37.9 µM [falling, full curve] | AC50 [4, 14]: 33.8 µM [falling, full curve]

COc1cc2nc(N3CCN(C(=O)C4COc5ccccc5O4)CC3)nc(N)c2cc1OC (centres undefined)
AC50 ([2]; measured here: GFP channel): 35.5 µM [rising, single point] | max response [3, 9]: 53.9% | max response [3, 12]: 54.6% | AC50 [4, 13]: 33.8 µM [falling, full curve] | AC50 [4, 14]: 26.9 µM [falling, full curve] | AC50 [5, 16]: 2.59 µM [rising, full curve] | z-score ([7]; TFE3-RCC UOK109 viability, measured here: UOK109 Z-AUC): 0.449 | z-score ([7]; TFE3-RCC viability, measured here: UOK124 Z-AUC): 0.267 | AC50 ([7]; TFE3-RCC viability, measured here: UOK124 cell viability): 23.5 µM [falling, partial curve] | z-score ([7]; TFE3-RCC viability, measured here: UOK145 Z-AUC): 0.654 | AC50 ([7]; TFE3-RCC viability, measured here: UOK145 cell viability): 29.6 µM [falling, single point]

COCCCC/C(=N\OCCN)c1ccc(C(F)(F)F)cc1
AC50 ([2]; measured here: GFP channel): 35.5 µM [falling, single point] | max response [3, 9]: 48.5% | max response [3, 12]: 44.7% | AC50 [4, 13]: 33.8 µM [falling, full curve] | AC50 [4, 14]: 30.1 µM [falling, full curve] | AC50 [5, 16]: 25.9 µM [falling, single point]

CC(C)NC[C@@H](O)COc1cccc2ccccc12
AC50 ([2]; measured here: GFP channel): 31.6 µM [rising, single point] | max response [3, 9]: 14.8% and 26.9% and 38.1% | AC50 [3, 10]: 15.8 µM [rising, single point] | AC50 [3, 11]: 20 µM [rising, single point] and 35.5 µM [rising, single point] | max response [3, 12]: 24.3% and 46.6% and 42.8% | AC50 [4, 13]: 75.7 µM [falling, partial curve] | AC50 [4, 14]: 84.9 µM [falling, single point] | AC50 [8]: 35.5 µM [falling, single point]

CCCC(C(=O)OCCN(CC)CC)(c1ccccc1)c1ccccc1
AC50 ([2]; measured here: RFP channel): 11.2 µM [falling, partial curve, poor fit] | AC50 [4, 13]: 42.6 µM [falling, full curve] | AC50 [4, 14]: 42.6 µM [falling, full curve] | AC50 [5, 16]: 18.4 µM [falling, single point] | AC50 [8]: 17.8 µM [falling, partial curve, poor fit]

O=C(O)c1ccccc1Nc1cccc(OCc2ccc3ccccc3n2)c1
AC50 ([2]; measured here: GFP channel): 35.5 µM [rising, single point] | max response [3, 9]: 27.4% and 39.3% | AC50 [3, 10]: 3.16 µM [rising, full curve] and 22.4 µM [falling, single point] | AC50 [3, 11]: 3.16 µM [rising, full curve] and 22.4 µM [falling, single point] | max response [3, 12]: 30% and 38.5% | AC50 [4, 14]: 1.35 µM [rising, full curve, poor fit] | AC50 [5, 16]: 16.4 µM [falling, single point]

N#C/C(=C\c1c[nH]c2ccccc12)C(=O)c1ccc(O)c(O)c1
AC50 ([2]; measured here: GFP channel): 11.2 µM [falling, partial curve, poor fit] | max response [3, 9]: -6.12% | max response [3, 12]: -6.58% | AC50 [4, 14]: 67.5 µM [falling, partial curve] | AC50 [5, 15]: 5.8 µM [falling, partial curve] | AC50 [5, 16]: 5.17 µM [falling, full curve]

CCCCCCCCCCCCCCCCCC(=O)OC(CC(=O)O)C[N+](C)(C)C (centres undefined)
AC50 ([2]; measured here: RFP channel): 15.8 µM [falling, partial curve] | max response [3, 9]: -37.5% | max response [3, 12]: -36.1% | AC50 [4, 14]: 26.9 µM [rising, partial curve] | AC50 [5, 16]: 2.91 µM [rising, partial curve] | viability change [6]: -5.87%

CCCC(=O)NCCc1c2n(c3ccc(OC)cc13)CCCc1ccccc1-2
AC50 ([2]; measured here: GFP channel): 11.2 µM [rising, partial curve, poor fit] | max response [3, 9]: 52.9% | max response [3, 12]: 57.5% | AC50 [4, 13]: 84.9 µM [falling, single point] | AC50 [4, 14]: 75.7 µM [falling, partial curve] | AC50 [5, 15]: 13 µM [falling, partial curve] | AC50 [5, 16]: 1.46 µM [rising, partial curve] | viability change [6]: -7.15%
